doi:10.1101/2021.01.29.428913
These are yes or no findings as the source states them, for the method shown. In cells and extracts the contact can be indirect. A result given as binding can be weak or reduced; the word gives no strength.

By UniProt entry, the sequences of proteins in these tests, tags left out. Where a name states a change or a piece, a line headed by the entry shows the natural chain unless it says otherwise.
UniProt Q9W2S2: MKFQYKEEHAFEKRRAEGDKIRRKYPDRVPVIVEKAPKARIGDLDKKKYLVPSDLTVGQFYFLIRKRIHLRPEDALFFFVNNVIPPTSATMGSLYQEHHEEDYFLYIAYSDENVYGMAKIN
UniProt Q9VWX2: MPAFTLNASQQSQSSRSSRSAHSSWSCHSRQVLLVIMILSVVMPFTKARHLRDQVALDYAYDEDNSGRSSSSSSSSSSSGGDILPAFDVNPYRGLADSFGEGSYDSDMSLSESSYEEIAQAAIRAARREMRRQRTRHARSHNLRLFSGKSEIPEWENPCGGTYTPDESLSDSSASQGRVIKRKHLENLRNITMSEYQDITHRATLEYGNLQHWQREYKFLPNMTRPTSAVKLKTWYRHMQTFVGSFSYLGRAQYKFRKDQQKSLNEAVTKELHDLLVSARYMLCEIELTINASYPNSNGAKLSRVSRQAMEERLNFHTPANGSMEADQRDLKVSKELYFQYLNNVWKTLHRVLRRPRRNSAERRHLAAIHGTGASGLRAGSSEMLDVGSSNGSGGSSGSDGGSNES

Target: Atg8-Myc (Drosophila melanogaster) (UniProt Q9W2S2)
Experiment: co-IP

binding: binds
Substance: Upd2-WT::GFP (from UniProt Q9VWX2)
